Numbering of substitutions follows the chain as printed. Results are given in words; binding and its absence hold for the method and conditions named. Some entries that bind do so weakly or less than the wild type. For part of these data: Tags and fused reporters may be left off the sequences shown.

Sequences of proteins named here, by UniProt entry; tags and fusion partners are left off. A change or cut given only in a name is not applied to a line headed by its entry. A line that says so, or that is headed by a name, gives the form on record, which may keep a tag or linker.
UniProt P16410: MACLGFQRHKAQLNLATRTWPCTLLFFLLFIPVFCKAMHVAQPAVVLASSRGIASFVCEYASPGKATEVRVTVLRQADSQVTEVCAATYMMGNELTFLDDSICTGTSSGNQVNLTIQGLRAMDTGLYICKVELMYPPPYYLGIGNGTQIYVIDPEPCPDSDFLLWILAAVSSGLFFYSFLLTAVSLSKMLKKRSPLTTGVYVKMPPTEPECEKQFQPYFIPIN
cynomolgous CTLA-4 on the surface of transfected CHO cells (cynomolgous monkey (macaca fascicularis)) (G7PL88, form named): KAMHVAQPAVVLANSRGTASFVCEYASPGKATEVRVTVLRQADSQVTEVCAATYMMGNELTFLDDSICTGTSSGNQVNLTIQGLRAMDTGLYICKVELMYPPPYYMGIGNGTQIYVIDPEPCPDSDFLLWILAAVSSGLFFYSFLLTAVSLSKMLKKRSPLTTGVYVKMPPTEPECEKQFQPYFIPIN

Assay [1] has as its target human CTLA-4-Fc (Chimerigen) (human) (UniProt P16410). Briefly: FACS competition: hCTLA-4 Fc binding to Raji cells.
Assay [2] has the same target. The assay can be described thus: competition FACS: 2.5 nM human CTLA-4 Fc pre-incubated with the antagonist, then staining of Raji cells; % inhibition of CTLA-4 Fc binding; blocked ligands B7.1 and B7.2.
For assay [3] the target is unchanged. The assay can be described thus: high-throughput ELISA of crude cell extracts on captured hCTLA-4-Fc. (In an ELISA, binding on a coated surface is turned into a signal by an enzyme label.)
Assay [4] has the same target. The assay can be described thus: competition FACS: 2.5 nM human CTLA-4 Fc pre-incubated with the antagonist, then staining of Raji cells; blocked ligands B7.1 and B7.2.
Assay [5] has the same target. Briefly: high-throughput ELISA of cell extracts.
Assay [6] addresses cynomolgous CTLA-4 on the surface of transfected CHO cells (cynomolgous monkey (macaca fascicularis)) (UniProt G7PL88). The assay can be described thus: FACS histograms of transfected CHO cells.
For assay [7], the target named is human CTLA-4-Fc (Chimerigen) (human) (UniProt P16410). Briefly: SPR, compared with F09. (In general: SPR reads the build-up and loss of mass on a sensor chip optically.)
The target of assay [8] is cynomolgous CTLA-4 on the surface of transfected CHO cells (cynomolgous monkey (macaca fascicularis)) (UniProt G7PL88). Briefly: FACS on transfected CHO cells.
Assay [9] addresses human CTLA-4-Fc (Chimerigen) (human) (UniProt P16410). The assay can be described thus: SPR, compared with J08.
The target is the same in assay [10]. The assay can be described thus: competition FACS: HuCTLA4-Ig 10 ug/ml pre-incubated with the antagonist, then staining of P815 cells transfected with human B7.2; blocked ligand B7.2.
For assay [11] the target is unchanged. The assay can be described thus: competition FACS: HuCTLA4-Ig 5 ug/ml (as printed on the axis) pre-incubated with the antagonist, then staining of P815 cells transfected with human B7.2; blocked ligand B7.2.

B1: S140.4-O10-ABD (fusion with the albumin binding domain of streptococcal protein G) (designed binder)
chain: QDSTSDLIPAPPLSKVPLQQNFQDNQFHGKWYVVGLAGNRILRDDQHPMNMYATIYELKEDKSYNVTSVISSHKKCEYTIATFVPGSQPGEFTLGNIKSYGDKTSYLVRVVSTDYNQYAVVFFKLAEDNAEFFAITIYGRTKELASELKENFIRFSKSLGLPENHIVFPVPIDQCIDGSGGAVDANSLAEAKVLANRELDKYGVSDYYKNLINNAKTVEGVKALIDEILAALPSAWSHPQFEK
With B1, the binding result in [1] and in assay [2] was “binds” in each case.

B2: hNGAL mutein S67.3-C21 (designed binder)
chain: QDSTSDLIPAPPLSKVPLQQNFQDNQFHGKWYVVGLAGNYIWRNDRYPMQMYATIYELKEDKSYNVTSVIFDTKKCEYPIATFVPGSQPGEFTLGNIKSYRMDTSYLVRVVSTNYNQHAMVFFKQVNHNTEHFAITIYGRTKELASELKENFIRFSKSLGLPENHIVFPVPIDQCIDGSAWSHPQF
Turning to B2, the binding entry in assay [3] is “binds”.

B3: hNGAL mutein S140.4-O10 without T7 tag (designed binder)
chain: QDSTSDLIPAPPLSKVPLQQNFQDNQFHGKWYVVGLAGNRILRDDQHPMNMYATIYELKEDKSYNVTSVISSHKKCEYTIATFVPGSQPGEFTLGNIKSYGDKTSYLVRVVSTDYNQYAVVFFKLAEDNAEFFAITIYGRTKELASELKENFIRFSKSLGLPENHIVFPVPIDQCIDG
Take B3: the binding result in assay [4] is listed as “binds”.

B4: hNGAL mutein S140.4-B16 (designed binder, not shown: small tags and cut ends)
chain: B3 chain with S71F, S72P, G95S, N96D
As to B4, the binding entry in [5] was “binds”.

B5: hNGAL mutein S140.3-P07 (designed binder, not shown: small tags and cut ends)
chain: B3 chain with S71F, S72P, N129D
Consider B5, for which, in [5], the binding result is listed as “binds”.

B6: hNGAL mutein S140.2-P24 (designed binder, not shown: small tags and cut ends)
chain: B3 chain with N50D, N116S
For B6, the binding result in assay [5] was “binds”.

B7: hNGAL mutein S140.4-O10 (designed binder)
chain: B3 chain
On to B7, for which the binding entry in [5], in assay [6], in assay [7], in assay [2] and in assay [8] was “binds” in each case.

B8: hNGAL mutein S140.1-F09 (designed binder, not shown: small tags and cut ends)
chain: B3 chain with D114N
As for B8, the binding result in assay [5] and in [9] was “binds” in each case.

B9: hNGAL mutein S94.7-Q13 (designed binder)
chain: QDSTSDLIPAPPLSKVPLQQNFQDNQFHGKWYVVGLAGNRILRDDQHPMNMYATIYELKEDKSYNVTSVIFPHKKCEYTIATFVPGSQPGEFTLGNIKSYGDKTSYLVRVVSTNYNQHATVFFKLAEDNAEFFAITIYGRTKELASELKENFIRFSKSLGLPENHIVFPVPIDQCIDGSAWSHPQF
For the molecule B9, the binding result in assay [10] and in assay [11] was “binds” each time.

B10: hNGAL mutein S67.2-F03 (designed binder)
chain: B9 chain with T120M, A126V
On to B10, for which the binding entry in assay [10] and in [3] was “binds” in each case.

Values taken from patent publication US20090042785A1.
